# Experimental data: PubChem BioAssay AID1347076 (National Center for Advancing Translational Sciences (NCATS), 2019)
# Hit rate of the full screen: of about 400,000 compounds, about 13,000 (3.2%) were called active. Inconclusive results, whose numbers are uncertain, are shown with a selection of clear calls. Calls follow the shape of the dose curve; as a rule, active = well fitted cell-killing curve with a large enough effect; inconclusive = small, poorly fitted or top-dose-only effect, or effect the other way; inactive = flat fitted curve, though single readings scatter. Potencies beside an inconclusive call are fits to weak or partial responses and may not hold up.
# Experiment: qHTS assay for MDR1-selective chemotherapeutics: Primary screen using the drug-selected MDR subline cells KB-V1; also: nearly all actives have a fitted effect of over 60% in size
# Conditions: KB-V1 MDR cells viability, CellTiter-Glo, 72 h; activity change, negative = cytotoxicity: at 46.1 µM (top of the series)
# In short: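 Compound-treated KB-V1 multidrug-resistant cells, 72 h, 37 degrees C; viability by CellTiter-Glo. Fitted qHTS curves give the values.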
# % is scaled to controls: 0 for no effect and ±100 for the full control effect; potency is read from the fitted curve at half-maximal effect.
Compound,"activity change, negative = cytotoxicity",Potency
Cc1cc(NC(=O)CSCC(=O)Nc2ccc(C)c(C)c2)no1,inconclusive: -1.7%,
Cc1c(F)cccc1NS(=O)(=O)c1ccc(OCCNS(C)(=O)=O)cc1,inactive: -22.8%,
O=C(NC(c1ccc(Cl)cc1)c1cnccn1)C1CCN(Cc2cccc(C(F)(F)F)c2)CC1 (centres undefined),,"inconclusive: 10.3 µM [cytotoxic, partial curve]"
COc1ccccc1C(=O)Nc1ccc(N2CCN(C(C)=O)CC2)cc1,inactive: 24.7%,
CCN(CCCNC(=O)c1nn(-c2ccc(C)cc2)c(=O)c2c1c1ccccc1n2C)c1cccc(C)c1,inactive: 1.7%,
CCCNC(=O)COc1ccc(-c2nn(C)c(=O)c3ccccc23)cc1,,"inconclusive: 29.1 µM [cytotoxic, single point]"
O=C(CCN1C(=O)C2CCCCC2C1=O)N1CCN(S(=O)(=O)c2ccccc2)CC1 (centres undefined),inactive: 20.4%,
CCCCC[C@@H](/C=C/C1C(=O)C=C[C@H]1C/C=C\CCCC(=O)OC)OC(C)=O (some centres undefined),,"inconclusive: 16.4 µM [cytotoxic, single point]"
O=C(CSc1ncnc2scc(-c3ccccc3)c12)N1CCN(Cc2ccc3c(c2)OCO3)CC1,,"inconclusive: 13 µM [cytotoxic, partial curve]"
CCC(CCC(=O)NNC(=O)Cc1ccc([N+](=O)[O-])cc1)C(=O)O (centres undefined),,"inconclusive: 20.6 µM [rising, partial curve]"
COc1ccccc1S(=O)(=O)N(C)C[C@@H]1OCc2cnnn2CCCC(=O)N([C@@H](C)CO)C[C@H]1C,inactive: -3.06%,
COC(=O)c1nc(NNC(=O)c2ccccc2)sc1-c1ccccc1,,"inconclusive: 20.6 µM [cytotoxic, single point]"
COC(=O)c1ccc(Cn2c(C)c(C(=O)NCc3ccc(C#N)cc3)sc2=O)o1,,active: 23.1 µM
Cc1ccc(NC(=S)c2nc3ccccc3[nH]2)cc1,,active: 23.1 µM
O=C(N/N=C/c1c[nH]c2ccc(Br)cc12)c1ccc2c(c1)OCO2,,"inconclusive: 29.1 µM [cytotoxic, single point]"
CN1CCN(c2ccc([N+](=O)[O-])c(Sc3nc4ccccc4[nH]3)c2)CC1,,active: 14.6 µM
Cc1ccc(C)c(OCCn2c(C3CC(=O)N(Cc4ccc(F)cc4)C3)nc3ccccc32)c1 (centres undefined),,"inconclusive: 0.184 µM [cytotoxic, full curve]"
COc1cccc(CNc2nc(NC(C)C)nc3ccsc23)c1,,"inconclusive: 2.06 µM [cytotoxic, full curve]"
Cn1c(C(=O)N2CCN(c3nc4ccccc4s3)CC2)cc2sccc21,inactive: 0%,
O=P(c1ccccc1)(c1ccccc1)c1cc(S(=O)(=O)O)ccc1O,inactive: 3.2%,
COc1ccc(Cl)cc1Nc1cc(C)nc2ccccc12,,"inconclusive: 20.6 µM [cytotoxic, single point]"
Cc1ccc(S(=O)(=O)NC(CC(C)C)C(=O)NCC(C)(C)N2CCOCC2)cc1 (centres undefined),,"inconclusive: 23.1 µM [cytotoxic, partial curve, poor fit]"
Cc1ccc(-c2ccc(=O)n(Cc3cccc(Br)c3)n2)cc1,,active: 16.4 µM

Compound,"activity change, negative = cytotoxicity",Potency
C=C(C)Cc1c(C)c(C#N)c2nc3ccccc3n2c1N1CCCCC1,,active: 3.66 µM
CCCCOCCCNC(=O)C[C@@H]1C[C@@]2(C(=O)OC)CC(C)(C)CC=C2N(CCc2ccc(OC)c(OC)c2)C1=O,,"inconclusive: 8.2 µM [cytotoxic, partial curve]"
N#CCCN(C(=O)COC(=O)c1n[nH]c2ccccc12)c1ccccc1,,"inconclusive: 20.6 µM [cytotoxic, single point]"
COc1ccc(CNC(=O)CS(=O)Cc2nc(-c3ccc(OC)c(OC)c3)oc2C)cc1 (centres undefined),,inactive
C=C(CC)C(=O)c1ccc(OCC(=O)O)c(Cl)c1Cl,,inactive
CN1CCN(c2ccc(C(=O)c3ccc(Br)cc3)cc2[N+](=O)[O-])CC1,,"inconclusive: 14.6 µM [cytotoxic, partial curve, poor fit]"
CCC(C)NCCOc1ccc(C(C)(C)c2ccccc2)cc1 (centres undefined),,"inconclusive: 11.6 µM [cytotoxic, partial curve]"
COC(=O)c1cn(Cc2ccccc2C)nn1,inactive: -13.1%,
CCOc1ccc(C(=O)CCC(=O)NNC(=O)CCN2CCN(c3ccccc3)CC2)cc1,,"inconclusive: 3.66 µM [cytotoxic, full curve, poor fit]"
CC1=CC2=NC(=O)/C(=C\c3ccc(OC(=O)c4ccco4)cc3)C(=N)N2O1,,"inconclusive: 0.411 µM [cytotoxic, full curve, poor fit]"
CCOc1ccc(C(=O)Nc2ccc(N3CCN(C(=O)c4ccco4)CC3)cc2)cc1Br,,"inconclusive: 1.84 µM [cytotoxic, full curve]"
COc1ccccc1NC(=O)Nc1ccc2c(c1)nc(C)n2C,,"inconclusive: 20.6 µM [cytotoxic, partial curve]"
Cc1ccc(NC(=O)CN2CCN(CCN=CC3=C(O)CC(C)(C)CC3=O)CC2)cc1,,"inconclusive: 29.1 µM [rising, single point]"
COc1cccc(NC(=O)COc2nc3ccccc3nc2C)c1,,"inconclusive: 14.6 µM [cytotoxic, partial curve]"
O=C1/C(=C/c2ccccn2)SC(=S)N1c1cccc(O)c1,,"inconclusive: 29.1 µM [cytotoxic, partial curve, poor fit]"
Cc1onc(C(=O)NCCc2ccccc2)c1[N+](=O)[O-],,"inconclusive: 29.1 µM [rising, single point]"
COc1cc(OC)cc(C(=O)Nc2cc(-c3nc4ccccc4[nH]3)ccc2C)c1,,"inconclusive: 23.1 µM [cytotoxic, partial curve]"
COc1ccc2ccn(S(=O)(=O)c3ccccc3)c2c1,inactive: 0.071%,
COc1ccc(S(=O)(=O)c2nnn(-c3cccc(OC)c3)c2N)cc1,,"inconclusive: 18.4 µM [rising, single point]"
CCc1cc(-c2n[nH]c(C)c2-c2nc(C)cs2)c(O)cc1OC,,"inconclusive: 20.6 µM [cytotoxic, single point]"
CCOC(=O)C1CCCN(c2nc3c(S(=O)(=O)c4ccc(Br)cc4)nnn3c3ccsc23)C1 (centres undefined),,"inconclusive: 5.8 µM [rising, full curve, poor fit]"
CC1(C)CC(=O)C2=C(C1)NC(=O)NC2c1ccccc1 (centres undefined),inactive: -6.2%,
COc1ccc(N(CC(=O)Nc2ccc(C)c(C)c2)S(=O)(=O)c2c(C)noc2C)cc1,,"inconclusive: 20.6 µM [cytotoxic, partial curve, poor fit]"

# Sorted by number of heavy atoms (descending): some entries from above.
Compound,"activity change, negative = cytotoxicity",Potency
CCN(CCCNC(=O)c1nn(-c2ccc(C)cc2)c(=O)c2c1c1ccccc1n2C)c1cccc(C)c1,inactive: 1.7%,
O=C(CSc1ncnc2scc(-c3ccccc3)c12)N1CCN(Cc2ccc3c(c2)OCO3)CC1,,"inconclusive: 13 µM [cytotoxic, partial curve]"
CCOc1ccc(C(=O)CCC(=O)NNC(=O)CCN2CCN(c3ccccc3)CC2)cc1,,"inconclusive: 3.66 µM [cytotoxic, full curve, poor fit]"
COC(=O)c1ccc(Cn2c(C)c(C(=O)NCc3ccc(C#N)cc3)sc2=O)o1,,active: 23.1 µM

# Further records follow:

Compound,"activity change, negative = cytotoxicity",Potency
O=C(NCc1ccncc1)c1cccc(S(=O)(=O)NCc2ccccc2)c1,,"inconclusive: 20.6 µM [rising, single point]"
N#Cc1c(-c2ccccc2)cc(C2CC2)nc1N,,"inconclusive: 29.1 µM [cytotoxic, single point]"
COc1cc(C(=O)N2CCC(C(N)=O)CC2)ccc1OCc1c(C)noc1C,inactive: 19.5%,
CC(C)(C)c1ccc(OCC(=O)N/N=C/c2ccc(N3CCOCC3)cc2)cc1,,"inconclusive: 11.6 µM [cytotoxic, partial curve]"
CC(=O)Nc1cncc(-c2cccc(C(=O)N3CCOCC3)c2)n1,inactive: -13.6%,
Cc1nonc1C(=O)N/N=C/c1ccc([N+](=O)[O-])o1,inactive: 11.3%,
COc1cccc2c1Oc1ncccc1N(C(=O)CCC(=O)NCCC(C)C)C2,inactive: 2.91%,
COc1ccc(C(=O)Nc2ccc(-c3nnc4n3CCCCC4)cc2)cc1,,"inconclusive: 14.6 µM [rising, single point]"
COc1ccccc1C(=O)Nc1ccc2c(c1)CCCN2C(=O)c1ccccc1,,"inconclusive: 14.6 µM [cytotoxic, partial curve, poor fit]"
Cc1cc(C)c(C)c(OCCCCn2cnc3ccccc3c2=O)c1,,active: 23.1 µM
COc1cccc(OC)c1C(=O)Nc1ccc(N2CCN(C(=O)c3cccs3)CC2)cc1,inactive: 0%,
CC(CN1CCOCC1)OC(=O)c1ccccc1 (centres undefined),inactive: 22.5%,
Cc1ccc(OCC(=O)N(Cc2cccs2)C2CCS(=O)(=O)C2)cc1 (centres undefined),,"inconclusive: 25.9 µM [cytotoxic, partial curve, poor fit]"
COc1ccccc1CN(Cc1cc2cc(C)ccc2[nH]c1=O)Cc1nnnn1Cc1ccco1,,active: 18.4 µM
O=C1NC[C@H](CCCCN2C[C@H](Cc3ccc(O)cc3)N(CCc3ccc(O)cc3)C(=O)C2=O)N(CC2CCCCC2)C1=O,,"inconclusive: 29.1 µM [rising, single point]"
COc1ccc(/C=C(/NC(=O)c2ccco2)C(=O)N2CCc3ccccc32)cc1OC,,"inconclusive: 14.6 µM [cytotoxic, partial curve, poor fit]"
CC(C)c1ccc(NC(=O)Nc2cnccn2)cc1,,"inconclusive: 25.9 µM [cytotoxic, single point]"
CCOC(=O)CC1=C(C(=O)OCC)C(c2cccs2)C(C#N)=C(N)O1 (centres undefined),,"inconclusive: 20.6 µM [cytotoxic, partial curve]"
CC(C(=O)Nc1nccs1)N1C(=O)c2ccccc2S1(=O)=O (centres undefined),,"inconclusive: 10.3 µM [cytotoxic, partial curve]"
COc1ccccc1N1C(=O)c2ccccc2NC1c1ccc(O)cc1 (centres undefined),,"inconclusive: 29.1 µM [rising, partial curve, poor fit]"
Cc1c(Cl)cccc1NC(=S)N1CCCCCC1,inactive: 21.3%,
CCc1n[n+](CC(=O)c2ccccc2)c(N)s1,,"inconclusive: 16.4 µM [cytotoxic, single point]"
CCCCC[C@H](C)N1C[C@H](COCc2ccccc2)Oc2cc(N3CCC[C@H]3COC)ccc2S1(=O)=O,,"inconclusive: 0.461 µM [cytotoxic, full curve, poor fit]"
